Test results taken from paper PMC8565326, “Structural dissection of sequence recognition and catalytic mechanism of human LINE-1 endonuclease”.
Results are given in words; binding and its absence hold for the method and conditions named.

Biological target: LINE-1 endonuclease (endonuclease domain of human LINE-1 ORF2p), wild type (human) (UniProt O00370)
Assay: AUC; sedimentation velocity, 20°C, 35 000 rpm, 25 mM HEPES pH 7.5, 100 mM NaCl, 1 mM TCEP, absorbance at 280 nm, continuous c(s) distribution model (SEDFIT); both purified

LINE-1 endonuclease (endonuclease domain of human LINE-1 ORF2p), wild type (from UniProt O00370 1-238) (domain or fragment)
binding: no binding (tested: sub-millimolar concentrations)
